The exact form of at least one protein or probe is not confirmed. For part of these data: Negatives hold for the conditions tested. For part of these data: Protein sequences can lack the tags named with them. For part of these data: The comparison behind a weaker result is the experiment's own reference, which may not be listed here.
Columns and labels:
[1] = test system: T1, cynomolgus hepcidin-25 (Macaca fascularis); assay: binding assay; settings: L-RNA, similar to human hepcidin-25, synthetic protein, protein details: synthetic L-peptide, mirror-image nucleic acid
T1 sequence: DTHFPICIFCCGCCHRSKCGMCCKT

Protein sequences, listed by entry. Tags and fused reporters are not part of them. Lines headed by an entry give the natural chain unless they say otherwise; changes in a name come on top.
UniProt P81172: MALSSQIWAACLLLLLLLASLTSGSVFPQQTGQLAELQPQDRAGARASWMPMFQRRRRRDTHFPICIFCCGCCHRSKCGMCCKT
UniProt Q9EQ21: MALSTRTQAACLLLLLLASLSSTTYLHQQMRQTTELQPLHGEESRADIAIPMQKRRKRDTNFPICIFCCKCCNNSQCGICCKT
UniProt Q99MH3: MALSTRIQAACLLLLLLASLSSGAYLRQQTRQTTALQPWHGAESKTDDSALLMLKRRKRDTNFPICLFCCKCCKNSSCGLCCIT

[2] = target: human hepcidin-20 (Homo sapiens) (UniProt P81172); assay: binding assay; settings: L-RNA, similar to human hepcidin-25, synthetic protein, protein details: synthetic L-peptide (BACHEM), mirror-image nucleic acid
[3] = target: human hepcidin-22 (Homo sapiens) (UniProt P81172); assay: binding assay; settings: L-RNA, similar to human hepcidin-25, synthetic protein, protein details: synthetic L-peptide, mirror-image nucleic acid
[4] = target: T2, mouse hepcidin-25 (Mus musculus) (UniProt Q9EQ21); assay: binding assay; settings: L-RNA, no binding, synthetic protein, protein details: synthetic L-peptide (BACHEM), mirror-image nucleic acid
T2 sequence: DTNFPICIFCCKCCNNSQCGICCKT

[5] = target: T3, rat hepcidin-25 (Rattus norvegicus) (UniProt Q99MH3); assay: binding assay; settings: L-RNA, no binding, synthetic protein, protein details: synthetic L-peptide (BACHEM), mirror-image nucleic acid
T3 sequence: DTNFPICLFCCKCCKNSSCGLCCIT

[6] = target: human hepcidin-20 (Homo sapiens) (UniProt P81172); assay: SPR; settings: L-RNA; almost same affinity as for hepcidin-25; synthetic protein; protein details: synthetic L-peptide (BACHEM); mirror-image nucleic acid; variant of 223-C5-001 (D-RNA)
[7] = target: T4, human hepcidin-25 (L-peptide) (Homo sapiens) (UniProt P81172); assay: activity in cells; settings: L-RNA, synthetic protein, mirror-image nucleic acid
T4 sequence: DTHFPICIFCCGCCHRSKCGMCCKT

[8] = target: T4, human hepcidin-25 (L-peptide) (Homo sapiens); assay: SPR; settings: L-RNA, synthetic protein, mirror-image nucleic acid
marmoset hepcidin-25 = target: T5, marmoset hepcidin-25 (UniProt A7XEI5); assay: binding assay; settings: L-RNA, synthetic protein, protein details: synthetic L-peptide, mirror-image nucleic acid
T5 sequence (looked up): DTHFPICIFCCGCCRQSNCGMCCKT

## AGCGUGUCGUAUGGGAUUAAGUAAAUGAGGAGUUGGAGGAAGGGCAUGCU [238-D4-001 (L-RNA)]
[1]; variant of 238-D4-001 (D-RNA)
  binding result: binds
[2]; variant of 238-D4-001 (D-RNA)
  binding result: binds
[3]; variant of 238-D4-001 (D-RNA)
  binding result: binds
[4]; variant of 238-D4-001 (D-RNA)
  binding result: no binding
[5]; variant of 238-D4-001 (D-RNA)
  binding result: no binding

## GCACUCGUAAAGUAGAGGGACCCAGUCCGGCGUGAUAGUGCCGAGUGC [223-C5-001 (L-RNA)]
[6]
  binding result: binds

## GCACUCGUAAAGUAGAGGGACCCAGUCCGGCGUGAUAGUGCCGAGUGC [223-C5-001-5'-PEG]
[7]; 5'-40 kDa PEG, blocks ferroportin down-regulation by 100 nM hepcidin in J774.1 cells, variant of 223-C5-001 (L-RNA)
  functional effect of the aptamer: active

## GCGCCGUAUGGGAUUAAGUAAAUGAGGAGUUGGAGGAAGGGCGC [238-D4-008 (L-RNA)]
[8]; Kd in same range as 238-D4-001, variant of 238-D4-008 (D-RNA)
  binding result: binds
[1]; variant of 238-D4-008 (D-RNA)
  binding result: binds
[2]; variant of 238-D4-008 (D-RNA)
  binding result: binds
Marmoset hepcidin-25; weaker than human hepcidin-25, variant of 238-D4-008 (D-RNA)
  binding result: binds more weakly
[4]; variant of 238-D4-008 (D-RNA)
  binding result: no binding
[5]; variant of 238-D4-008 (D-RNA)
  binding result: no binding

## GCGCCGUAUGGGAUUAAGUAAAUGAGGAGUUGGAGGAAGGGCGC [238-D4-008-5'-Amino]
[7]; 5'-amino, blocks hepcidin-induced ferroportin down-regulation in J774.1 cells, variant of 238-D4-008 (L-RNA), dose not given here
  functional effect of the aptamer: active

## GCGCCGUAUGGGAUUAAGUAAAUGAGGAGUUGGAGGAAGGGCGC [238-D4-008-5'-PEG (NOX-H94)]
[7]; 5'-40 kDa PEG, blocks hepcidin-induced ferroportin down-regulation in J774.1 cells, variant of 238-D4-008 (L-RNA), dose not given here
  functional effect of the aptamer: active

## GCGCGCGUAUGGGAUUAAGUAAAUGAGGAGUUGGAGGAAGGCGCGC [238-D4-002 (L-RNA)]
[8]; Kd in same range as 238-D4-001, variant of 238-D4-002 (D-RNA)
  binding result: binds

## GCUGUGUAAAGUAGAGGACAAUUGUCGGCGUGAUAGUGCCACAGC [229-B1-002 (L-RNA)]
[1]; variant of 229-B1-002 (D-RNA)
  binding result: binds
[2]; variant of 229-B1-002 (D-RNA)
  binding result: binds
[3]; variant of 229-B1-002 (D-RNA)
  binding result: binds
[4]; variant of 229-B1-002 (D-RNA)
  binding result: no binding
[5]; variant of 229-B1-002 (D-RNA)
  binding result: no binding

## GGCCGGACAGCCGGGGGACACCAUAUACAGACUACGAUACGGCC [238-C4-006 (L-RNA)]
[8]; Kd in same range as 238-C4-001, variant of 238-C4-006 (D-RNA)
  binding result: binds
[1]; variant of 238-C4-006 (D-RNA)
  binding result: binds
[2]; variant of 238-C4-006 (D-RNA)
  binding result: binds
[3]; variant of 238-C4-006 (D-RNA)
  binding result: binds
Marmoset hepcidin-25; no binding, variant of 238-C4-006 (D-RNA)
  binding result: no binding
[4]; variant of 238-C4-006 (D-RNA)
  binding result: no binding
[5]; variant of 238-C4-006 (D-RNA)
  binding result: no binding

## GGCUCGGACAGCCGGGGGACACCAUAUACAGACUACGAUACGGGCC [238-C4-002 (L-RNA)]
[8]; Kd in same range as 238-C4-001, variant of 238-C4-002 (D-RNA)
  binding result: binds

## GGUGUCGUAUGGGAUUAAGUAAAUGAGGAGUUGGAGGAAGGGCAUC [238-D4-006 (L-RNA)]
[8]; Kd in same range as 238-D4-001, variant of 238-D4-006 (D-RNA)
  binding result: binds

Source: US20160257958
